Measured values published in PubChem BioAssay AID504444 (National Center for Advancing Translational Sciences (NCATS), 2011).
The campaign covered roughly 360,000 compounds. About 7,500 (2.1%) were called active. Inconclusive means that the source gave no clear call. Such entries were picked first, then a sample of the others. The call rests on the fitted dose curve; in most records, active means well fitted inhibition curve with a large enough effect; inconclusive means small, poorly fitted or top-dose-only effect, or effect the other way; inactive means flat fitted curve, though single readings scatter. Where the call is inconclusive, the potency comes from a doubtful curve fit.

test: Nrf2 qHTS screen for inhibitors; details: A549 ARE-Fluc reporter, luciferase luminescence, 18-24 h; activity change, negative = inhibition: at 46 µM (top of the series); further: nearly all actives have a fitted effect of over 60% in size
How it was run: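 A549 ARE_Fluc cells (5000/well, 5% FBS OPTI-MEM) pre-incubated 2 h, then treated with compounds 18-24 h at 37C/5% CO2 in concentration-response. CellTiter-Fluor viability read first; BugLite luciferase luminescence after 15 min at room temperature gives Nrf2 activity.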
On the % scale 0 is the no-effect control and ±100 the full control effect; potency means the concentration at half of the fitted maximal effect.

| SMILES | Potency | activity change, negative = inhibition |
| --- | --- | --- |
| CS(=O)(=O)c1ccccc1C(=O)N1CCN(S(=O)(=O)c2ccc(C3CCCCC3)cc2)CC1 | inconclusive: 29.1 µM [falling, single point] |  |
| c1ccc(Cc2nnc(SCc3nc(-c4cccs4)no3)n2-c2ccccc2)cc1 | inconclusive: 23.1 µM [falling, single point] |  |
| CC1CCCCN1C(=O)CNCc1ccc(F)cc1 (stereo unspecified) | inconclusive: 29.1 µM [activator, single point] |  |
| Cc1ccccc1N1CCN(S(=O)(=O)c2nnc(NC(=O)c3ccccc3)s2)CC1 | inconclusive: 16.4 µM [activator, partial curve] |  |
| COc1ccc(C(=O)Nc2cc(C(C)C)c(O)c(S(=O)(=O)c3ccc(OC)cc3)c2C)cc1 | inconclusive: 0.82 µM [activator, full curve] |  |
| O=C(CNC(=O)c1ccccc1Cl)NCCc1cccs1 |  | inactive: 4% |
| CSc1nc(-c2ccc(C)cc2)nc(C(Cl)Cl)n1 |  | inactive: -25% |
| COc1ccccc1OC(C)C(=O)Nc1ccc2c(c1)n(C)c(=O)n2C (stereo unspecified) | inconclusive: 25.9 µM [falling, single point] |  |
| CS(=O)(=O)c1ccc(NC(=O)C2CCCN(C(=O)c3ccc(Cl)cc3)C2)cc1 (stereo unspecified) | inconclusive: 18.4 µM [falling, partial curve, poor fit] |  |
| CC1CCCN(S(=O)(=O)c2cc(C(=O)NCCc3ccc(S(N)(=O)=O)cc3)ccc2Cl)C1 (stereo unspecified) | active: 4.11 µM |  |
| O=c1c2oc3ccccc3c2n(Cc2cccc(F)c2)c(=O)n1Cc1ccco1 | inconclusive: 29.1 µM [activator, single point] |  |
| COc1ccc2oc(C(=O)NC(C)(C)C)c(C)c2c1 | inconclusive: 9.2 µM [activator, partial curve] |  |
| CC(C)c1ccc2oc(-c3cc(NC(=O)c4cccs4)ccc3Cl)nc2c1 | inconclusive: 1.84 µM [activator, partial curve] |  |
| CCOc1ccccc1NC(=O)c1ccc2ccccc2c1 | inconclusive: 29.1 µM [activator, single point] |  |
| CCCn1c(=O)c(C(=O)NNC(=O)Cc2ccccc2)c(O)c2ccccc21 | inconclusive: 14.6 µM [falling, single point] |  |
| O=C1CN(C(=O)c2ccc(Br)o2)C(c2ccc(F)cc2)c2cc(F)ccc2N1 (stereo unspecified) | active: 16.4 µM |  |
| COc1ccc(OC)c(NC(=O)Cn2cnc3sc(C)c(S(=O)(=O)N4CCN(c5ccccc5OC)CC4)c3c2=O)c1 |  | inactive: 6.49% [at 9.27 µM] |
| O=C(c1cc(COc2ccc3ncccc3c2)on1)N1CCC(O)CC1 | active: 8.2 µM |  |
| Cn1c(=S)n(C)c2ccccc21 | inconclusive: 9.2 µM [falling, partial curve, poor fit] |  |
| COc1ccccc1C(=O)NCCC(=O)Nc1ccc(S(=O)(=O)N2C(C)CCCC2C)cc1 (stereo unspecified) | inconclusive: 18.4 µM [falling, single point] |  |
| Cc1ccc(C)c(COC(=O)c2cccc(S(=O)(=O)N3CCCC3)c2)c1 | inconclusive: 20.6 µM [falling, single point] |  |
| FC(F)(F)c1ccc(C2[C@H]3CN(Cc4cccnc4)[C@H](c4ccccc4)C34CC2(c2cccnc2)C4)cc1 (stereo partly specified) | active: 25.9 µM |  |

In another format: results already given.
COc1ccc(C(=O)Nc2cc(C(C)C)c(O)c(S(=O)(=O)c3ccc(OC)cc3)c2C)cc1
  Potency: inconclusive: 0.82 µM [activator, full curve]
O=C(CNC(=O)c1ccccc1Cl)NCCc1cccs1
  activity change, negative = inhibition: inactive: 4%
CSc1nc(-c2ccc(C)cc2)nc(C(Cl)Cl)n1
  activity change, negative = inhibition: inactive: -25%

(cont.)

| SMILES | Potency | activity change, negative = inhibition |
| --- | --- | --- |
| COCCCNC(=O)C[C@H]1C[C@H](C(=O)N2CCOCC2)[C@@]2(C)c3[nH]c4cc(-c5ccco5)ccc4c3CCN2C1=O |  | inactive: 2.45% |
| CCC(C)N1C(=O)CCC1C(=O)N1CCN(c2ccc(F)cc2)CC1 (stereo unspecified) | inconclusive: 29.1 µM [activator, single point] |  |
| CCOc1ccc(NC(=O)CCCNC(=O)Cn2cnc3sc(C)c(C)c3c2=O)cc1 | inconclusive: 25.9 µM [falling, single point] |  |
| Cc1ccc(CC(=O)NCC2CCCCC2)cc1 | inconclusive: 5.8 µM [activator, full curve] |  |
| COc1ccc(CN2CCNC(=O)C2CC(=O)NCc2csc(C)n2)c(F)c1 (stereo unspecified) |  | inactive: 2.19% |
| CCOc1cc2[nH]c(=O)n(Cc3ccc(C(=O)NCCOC)cc3)c(=O)c2cc1OCC | inconclusive: 1.84 µM [falling, full curve, poor fit] |  |
| COc1ccc(C(=O)Nc2cccc(C(C)=O)c2)c(OC)c1OC |  | inactive: 13.8% |
| CN(C)c1ccc(C(=O)NCCCSc2ccccc2)cc1 | inconclusive: 13 µM [falling, partial curve, poor fit] |  |
| Cc1ccc(-c2csc(N(CCO)CCCn3c(C(F)(F)F)nc4ccccc43)n2)cc1 | inconclusive: 16.4 µM [falling, single point] |  |
| CC(C)c1ccc(CN2C(=O)c3ccccc3S2(=O)=O)cc1 | inconclusive: 18.4 µM [activator, single point] |  |
| CN(Cc1ccc(Br)cc1)CC(O)COc1cccc(Br)c1 (stereo unspecified) | inconclusive: 23.1 µM [falling, single point] |  |
| COCCCNC(=O)CSc1ccsc1[N+](=O)[O-] | inconclusive: 23.1 µM [activator, partial curve, poor fit] |  |
| Cc1cc(C)n(S(=O)(=O)/C=C/c2ccccc2)n1 | active: 9.2 µM |  |
| Cc1cc(C(=O)CSc2nc3ccc(Cl)cc3[nH]2)c(C)n1C |  | inactive: -7.22% |
| O=C(/C=C/c1ccc(Cl)cc1)NC(=S)Nc1ccc(N2CCOCC2)c(Cl)c1 | active: 16.4 µM |  |
| Cc1cc(C)nc(NC(=S)Nc2cccc(F)c2)c1 | inconclusive: 5.17 µM [activator, full curve] |  |
| CCOC(=O)C1CCN(S(=O)(=O)c2cc(-c3onc(C)c3C)ccc2OC)CC1 | inconclusive: 2.06 µM [activator, partial curve] |  |
| CCOC(=O)C1(CC2CC2)CCN(C(=O)c2ocnc2C)CC1 | inconclusive: 5.17 µM [activator, full curve] |  |
| O=C(COC(=O)c1n[nH]c2ccccc12)NC(=O)NC12CC3CC(CC(C3)C1)C2 | inconclusive: 16.4 µM [falling, partial curve, poor fit] |  |
| CCCOc1ccc(C(=O)N2CCN(Cc3ccc4c(c3)OCO4)CC2)cc1 | inconclusive: 3.26 µM [falling, single point] |  |
| Cc1ccc(Cl)cc1N1CCN(C(=O)C2CCCN(S(=O)(=O)c3ccc(Br)s3)C2)CC1 (stereo unspecified) |  | inactive: -26.3% |
| COc1ccc(CCn2c(N)cc(=O)[nH]c2=S)cc1OC | inconclusive: 29.1 µM [activator, single point] |  |

| SMILES | Potency | activity change, negative = inhibition |
| --- | --- | --- |
| Cc1ccc(CN(CC(=O)NCCc2ccccc2)C(=O)c2csnn2)cc1 |  | inactive: -8.86% |
| CCN1CCN(C(=O)CN(c2ccccc2C)S(C)(=O)=O)CC1 | inconclusive: 1.84 µM [activator, partial curve, poor fit] |  |
| Cc1sc2ncn(CC(=O)Nc3ccccc3F)c(=O)c2c1-c1ccccc1 | inconclusive: 4.61 µM [falling, full curve] |  |
| Cn1cc(Br)c(C(=O)Nc2nccs2)n1 | inconclusive: 1.46 µM [activator, full curve] |  |
| c1ccc(Oc2ccc3ccccc3n2)cc1 | inconclusive: 25.9 µM [activator, partial curve, poor fit] |  |
| Cc1ccc2nc(-c3ccc(Cl)c(NC(=O)c4cccnc4)c3)oc2c1 | inconclusive: 5.8 µM [activator, full curve] |  |
| Clc1ccc(-c2cn3cccnc3n2)cc1Cl | inconclusive: 14.6 µM [activator, single point] |  |
| COc1ccc(CNc2ccc([N+](=O)[O-])cn2)cc1 | inconclusive: 29.1 µM [activator, single point] |  |
| COc1ccc(C=NNc2ccc(S(=O)(=O)Nc3ccccc3C(=O)O)cc2[N+](=O)[O-])c(OC)c1 |  | inactive: -2.44% |
| Oc1ccc(Cl)c2cccnc12 | inconclusive: 18.4 µM [falling, single point] |  |
| CCOc1ccccc1CNC(=O)c1cc2c(=O)n(Cc3ccccc3)ccc2nc1C | inconclusive: 25.9 µM [falling, single point] |  |
| Cc1ccc(C(=O)N(Cc2ccc3c(c2)OCO3)Cc2nc3ccccc3c(=O)[nH]2)cc1 | inconclusive: 29.1 µM [falling, single point] |  |
| COc1ccc(-n2c(SC(C)C(=O)Nc3ncc(Cl)cc3Cl)nc3ccccc32)cc1 (stereo unspecified) | inconclusive: 0.651 µM [activator, full curve] |  |
| CC(=O)c1cnc2c(-c3ccccc3)c(C(F)(F)F)nn2c1C | inconclusive: 20.6 µM [falling, partial curve] |  |
| O=C(Nc1nnc(-c2ccccn2)o1)c1ccc(Br)cc1 | inconclusive: 2.91 µM [activator, full curve] |  |
| Cc1ccc(-n2c(=O)c3cccnc3n2CC(=O)Nc2cccc(C)c2C)cc1 | inconclusive: 14.6 µM [falling, partial curve, poor fit] |  |
| O=C(CN1CCC(O)(c2ccc3c(c2)OCO3)CC1)OC1CCCCC1 | inconclusive: 16.4 µM [falling, single point] |  |
| CCN(CC)c1ccc(Nc2cc3n(c(=O)n2)CCc2cc(OC)c(OC)cc2-3)cc1 | active: 16.4 µM |  |
| CC(C)(C)C(=O)O/N=C(\N)c1ccc([N+](=O)[O-])s1 | inconclusive: 23.1 µM [falling, single point] |  |
| Cc1ccc(CNC(=O)C2CCC(CNS(=O)(=O)c3cccc4cccnc34)CC2)cc1 (stereo unspecified) | inconclusive: 29.1 µM [falling, single point] |  |
| CC[n+]1c(/C=C/c2cc([N+](=O)[O-])ccc2O)ccc2ccccc21 | inconclusive: 23.1 µM [activator, partial curve] |  |
| CSc1ccccc1-c1nnc(-c2ccc(Cl)c(Cl)c2)o1 | inconclusive: 3.26 µM [activator, full curve, poor fit] |  |
